# The other results are listed elsewhere or left out.
# B1: GS13971A-bth-447-22-447 (Bacteroides thetaiotaomicron) (protein)
# chain: EDVDNERSKGMFSASQSGFSTIEVYDLGPLNKIDLSIAKAGLEDTGGTVTFSVEQSLLDSLNNADGTSYQLLPPECYTIENATYSVSPGGDRRVTGGSLVYDPHKIYNLCGFDELKYVLPLRVSSTGTPMNSDRTATLYGFIVKEAIVRLASTGGDFVVEGGTTTSPMNLDTEISFENEWDLTTSFATKGADYVDNYNSANSTYYIPLPSDFYTLPDVTIAKGKTTGGSAISLLGETLPPGNYLLPVSLGGLSGQGDASINIDKETVANYFVIKQGGPINRDHWTVTANTEEKTGEVSAAYPHNGQTISLIDGEINTFWHSKWQGGEVAPPYEIILDMGKENSVSQLGLIARQNALTSMNLEIYAGDDGETWNLIGKYFFDGSIKTEQMVPVKACDARWIRIYIPTLGSGSSVGHLAEIYVYGTDK
# Assays:
# Assay in all cases: glycan array binding signal (z-score within array); higher = stronger binding
# Settings in all cases: glycan notation: IUPAC condensed, linker removed
# [1] = molecular target: Neu5Ac(a2-3)Gal(b1-4)GlcNAc(b1-6)GalNAc
# In short: (§1)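 Glycan array binding is given as a within-array Z-score, which can be read as non-binding when negative. The arrays, 3228 of them, came from the Consortium for Functional Glycomics database and were retained only where the protein sequence was available. Z-scores were averaged across arrays of the same protein sequence at different concentrations or buffers and across linkers.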
# [2] = molecular target: Neu5Ac(a2-3)Gal(b1-4)GlcNAc(b1-6)[Gal(b1-3)]GalNAc
# In short: as §1
# [3] = molecular target: Neu5Ac(a2-3)Gal(b1-4)GlcNAc(b1-6)[Neu5Ac(a2-3)Gal(b1-3)]GalNAc
# In short: as §1
# [4] = molecular target: Neu5Ac(a2-3)Gal(b1-4)GlcNAc6S
# In short: as §1
# [5] = molecular target: Neu5Ac(a2-3)Gal(b1-4)[Fuc(a1-3)]GlcNAc
# In short: as §1
# [6] = molecular target: Neu5Ac(a2-3)Gal(b1-4)[Fuc(a1-3)]GlcNAc(b1-2)Man
# In short: as §1
# [7] = molecular target: Neu5Ac(a2-3)Gal(b1-4)[Fuc(a1-3)]GlcNAc(b1-3)Gal
# In short: as §1
# [8] = molecular target: Neu5Ac(a2-3)Gal(b1-4)[Fuc(a1-3)]GlcNAc(b1-3)Gal(b1-4)GlcNAc
# In short: as §1
# [9] = molecular target: Neu5Ac(a2-3)Gal(b1-4)[Fuc(a1-3)]GlcNAc(b1-3)Gal(b1-4)[Fuc(a1-3)]GlcNAc(b1-3)Gal(b1-4)[Fuc(a1-3)]GlcNAc
# In short: as §1
# [10] = molecular target: Neu5Ac(a2-3)Gal(b1-4)[Fuc(a1-3)]GlcNAc(b1-3)GalNAc
# In short: as §1
# [11] = molecular target: Neu5Ac(a2-3)Gal(b1-4)[Fuc(a1-3)]GlcNAc(b1-6)[Gal(b1-3)]GalNAc
# In short: as §1
# [12] = molecular target: Neu5Ac(a2-3)Gal(b1-4)[Fuc(a1-3)]GlcNAc(b1-6)[Neu5Ac(a2-3)Gal(b1-3)]GalNAc
# In short: as §1
# [13] = molecular target: Neu5Ac(a2-3)Gal(b1-4)[Fuc(a1-3)]GlcNAc6S
# In short: as §1
# [14] = molecular target: Neu5Ac(a2-3)Gal6S(b1-4)GlcNAc
# In short: as §1
# [15] = molecular target: Neu5Ac(a2-3)Gal6S(b1-4)[Fuc(a1-3)]GlcNAc
# In short: as §1
# Neu5Ac(a2-3)GalNAc = molecular target: Neu5Ac(a2-3)GalNAc
# In short: as §1
# [16] = molecular target: Neu5Ac(a2-3)GalNAc(b1-4)GlcNAc
# In short: as §1
# [17] = molecular target: Neu5Ac(a2-3)[GalNAc(b1-4)]Gal(b1-4)Glc
# In short: as §1
# [18] = molecular target: Neu5Ac(a2-3)[GalNAc(b1-4)]Gal(b1-4)GlcNAc
# In short: as §1
# [19] = molecular target: Neu5Ac(a2-3)[GalNAc(b1-4)]Gal(b1-4)GlcNAc(b1-3)GalNAc
# In short: as §1
# [20] = molecular target: Neu5Ac(a2-3)[Neu5Ac(a2-6)]GalNAc
# In short: as §1
# Neu5Ac(a2-6)Gal = molecular target: Neu5Ac(a2-6)Gal
# In short: as §1
# [21] = molecular target: Neu5Ac(a2-6)Gal(b1-3)GlcNAc(b1-3)[Gal(b1-4)GlcNAc(b1-6)]Gal(b1-4)Glc
# In short: as §1
# Neu5Ac(a2-6)Gal(b1-4)Glc = molecular target: Neu5Ac(a2-6)Gal(b1-4)Glc
# In short: as §1
# [22] = molecular target: Neu5Ac(a2-6)Gal(b1-4)GlcNAc
# In short: as §1
# [23] = molecular target: Neu5Ac(a2-6)Gal(b1-4)GlcNAc(b1-2)Man
# In short: as §1
# [24] = molecular target: Neu5Ac(a2-6)Gal(b1-4)GlcNAc(b1-2)Man(a1-3)Man(b1-4)GlcNAc(b1-4)GlcNAc
# In short: as §1
# [25] = molecular target: Neu5Ac(a2-6)Gal(b1-4)GlcNAc(b1-2)Man(a1-3)[Gal(b1-4)GlcNAc(b1-2)Man(a1-6)]Man(b1-4)GlcNAc(b1-4)GlcNAc
# In short: as §1
# [26] = molecular target: Neu5Ac(a2-6)Gal(b1-4)GlcNAc(b1-2)Man(a1-3)[GlcNAc(b1-2)Man(a1-6)]Man(b1-4)GlcNAc(b1-4)GlcNAc
# In short: as §1
# [27] = molecular target: Neu5Ac(a2-6)Gal(b1-4)GlcNAc(b1-2)Man(a1-3)[GlcNAc(b1-4)][Neu5Ac(a2-6)Gal(b1-4)GlcNAc(b1-2)Man(a1-6)]Man(b1-4)GlcNAc(b1-4)GlcNAc
# In short: as §1
# [28] = molecular target: Neu5Ac(a2-6)Gal(b1-4)GlcNAc(b1-2)Man(a1-3)[Man(a1-6)]Man(b1-4)GlcNAc(b1-4)GlcNAc
# In short: as §1
binder,measurement,setting,value
B1,glycan array binding signal (z-score),[1],-1.03
same,glycan array binding signal (z-score),[2],0.358
same,glycan array binding signal (z-score),[3],-0.5
same,glycan array binding signal (z-score),[4],-1.5
same,glycan array binding signal (z-score),[5],0.375
same,glycan array binding signal (z-score),[6],-0.742
same,glycan array binding signal (z-score),[7],-0.124
same,glycan array binding signal (z-score),[8],0.574
same,glycan array binding signal (z-score),[9],-0.587
same,glycan array binding signal (z-score),[10],1.95
same,glycan array binding signal (z-score),[11],0.159
same,glycan array binding signal (z-score),[12],0.222
same,glycan array binding signal (z-score),[13],-0.912
same,glycan array binding signal (z-score),[14],0.523
same,glycan array binding signal (z-score),[15],0.166
same,glycan array binding signal (z-score),Neu5Ac(a2-3)GalNAc,1.35
same,glycan array binding signal (z-score),[16],-0.838
same,glycan array binding signal (z-score),[17],0.396
same,glycan array binding signal (z-score),[18],-0.552
same,glycan array binding signal (z-score),[19],0.08
same,glycan array binding signal (z-score),[20],0.216
same,glycan array binding signal (z-score),Neu5Ac(a2-6)Gal,0.263
same,glycan array binding signal (z-score),[21],0.019
same,glycan array binding signal (z-score),Neu5Ac(a2-6)Gal(b1-4)Glc,0.196
same,glycan array binding signal (z-score),[22],-0.188
same,glycan array binding signal (z-score),[23],0.996
same,glycan array binding signal (z-score),[24],-0.975
same,glycan array binding signal (z-score),[25],-0.594
same,glycan array binding signal (z-score),[26],-0.032
same,glycan array binding signal (z-score),[27],0.18
same,glycan array binding signal (z-score),[28],-0.289

# An excerpt of these results, tab-delimited.
binder	measurement	setting	value
B1	glycan array binding signal (z-score)	[26]	-0.032
same	glycan array binding signal (z-score)	[27]	0.18
